Source: paper PMC10275759

Molecular target: T1, microfibril associated protein 5 (MFAP5), in CAFs used for LC-MS/MS (not stated (human CAF3 or mouse ImdyCAF cells)) (UniProt Q13361)
T1 sequence: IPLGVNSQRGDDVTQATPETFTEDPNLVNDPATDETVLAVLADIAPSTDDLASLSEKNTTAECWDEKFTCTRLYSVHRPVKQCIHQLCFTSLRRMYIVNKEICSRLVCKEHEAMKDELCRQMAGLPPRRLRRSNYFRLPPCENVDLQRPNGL
Experiment: affinity purification with mass spectrometry; proteins binding with MFAP5 in CAFs identified by LC-MS/MS; no further conditions told

binding: binds
B1: Reticulocalbin 2 (RCN2), in CAFs used for LC-MS/MS (protein, UniProt Q14257 23-317)
chain: GKAEELHYPLGERRSDYDREALLGVQEDVDEYVKLGHEEQQKRLQAIIKKIDLDSDGFLTESELSSWIQMSFKHYAMQEAKQQFVEYDKNSDDTVTWDEYNIQMYDRVIDFDENTALDDAEEESFRKLHLKDKKRFEKANQDSGPGLSLEEFIAFEHPEEVDYMTEFVIQEALEEHDKNGDGFVSLEEFLGDYRWDPTANEDPEWILVEKDRFVNDYDKDNDGRLDPQELLPWVVPNNQGIAQEEALHLIDEMDLNGDKKLSEEEILENPDLFLTSEATDYGRQLHDDYFYHDEL

Results are given in words; binding and its absence hold for the method and conditions named. Binding seen in cells or lysates may run through a third protein. Here binding means that the protein was enriched with, or labelled near, the bait; the list need not be complete.
